This is an account of results in PMC2664966.

Protein sequences, listed by entry. Tags and fused reporters are not part of them. Lines headed by an entry give the natural chain unless they say otherwise; changes in a name come on top.
UniProt P28074: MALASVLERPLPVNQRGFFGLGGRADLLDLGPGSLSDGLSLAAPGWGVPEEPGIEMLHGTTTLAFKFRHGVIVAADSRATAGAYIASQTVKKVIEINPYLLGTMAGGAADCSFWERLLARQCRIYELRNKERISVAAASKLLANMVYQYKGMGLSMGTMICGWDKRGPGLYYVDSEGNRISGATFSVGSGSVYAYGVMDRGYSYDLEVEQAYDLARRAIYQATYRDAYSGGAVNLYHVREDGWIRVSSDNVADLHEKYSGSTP

In this assay the target is 20S proteasome β5 subunit (human) (UniProt P28074). Description: peptide or protein array; ProtoArray Human Protein Microarray v4.0 (Invitrogen, more than 8,000 human proteins immobilized) probed with Alexa Fluor 568-labelled HAMLET at 5 and 50 ng/µl in duplicate; hits by Z-score against a negative control array without HAMLET; both purified.

No constants are given. Whether binding was seen depends on the method and setting. A result given as binding can be weak or reduced; the word gives no strength.

B1: Alexa Fluor 568-labeled HAMLET (protein, UniProt P00709 20-142)
chain: KQFTKCELSQLLKDIDGYGGIALPELICTMFHTSGYDTQAIVENNESTEYGLFQISNKLWCKSSQVPQSRNICDISCDKFLDDDITDDIMCAKKILDIKGIDYWLAHKALCTEKLEQWLCEKL
modifications: Alexa Fluor 568 conjugate (residues not stated)
With B1, the binding entry is listed as “binds”.
